Binding data for three molecules are collected here from publication PMC11065751.

Numbering of substitutions follows the chain as printed. Results are given in words; binding and its absence hold for the method and conditions named. Binding seen in cells or lysates may run through a third protein. Some results given as binding are weak or reduced against the parent protein; the word gives no strength. For part of these data: Where a sequence is shown, tags or fusion partners need not be part of it.

The target in test [1] is T1, Vangl1, endogenous mouse (mouse (endogenous in IMCD3)) (UniProt Q80Z96).
T1 sequence: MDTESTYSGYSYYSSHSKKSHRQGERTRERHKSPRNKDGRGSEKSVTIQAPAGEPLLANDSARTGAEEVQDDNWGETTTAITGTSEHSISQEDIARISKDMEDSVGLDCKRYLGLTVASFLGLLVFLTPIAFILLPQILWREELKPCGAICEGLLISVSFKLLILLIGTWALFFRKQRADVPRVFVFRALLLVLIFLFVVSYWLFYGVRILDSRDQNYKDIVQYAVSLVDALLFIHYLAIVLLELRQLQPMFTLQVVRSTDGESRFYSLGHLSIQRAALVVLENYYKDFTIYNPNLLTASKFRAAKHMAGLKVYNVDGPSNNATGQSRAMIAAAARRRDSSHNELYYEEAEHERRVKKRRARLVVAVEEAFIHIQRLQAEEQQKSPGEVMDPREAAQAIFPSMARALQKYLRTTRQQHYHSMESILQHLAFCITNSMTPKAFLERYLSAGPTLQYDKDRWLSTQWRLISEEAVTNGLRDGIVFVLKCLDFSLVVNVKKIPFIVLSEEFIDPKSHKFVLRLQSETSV
The test can be described thus: co-IP; serial IP of endogenous proteins from IMCD3 cell extracts: two successive rounds of IP with N-VGL2 pAb, then IP of the Vangl2-Long depleted lysate with a Vangl1-specific antibody.

The target in test [2] is T2, VANGL2 expressed from pVANGL2 (human) (UniProt Q9ULK5).
T2 sequence: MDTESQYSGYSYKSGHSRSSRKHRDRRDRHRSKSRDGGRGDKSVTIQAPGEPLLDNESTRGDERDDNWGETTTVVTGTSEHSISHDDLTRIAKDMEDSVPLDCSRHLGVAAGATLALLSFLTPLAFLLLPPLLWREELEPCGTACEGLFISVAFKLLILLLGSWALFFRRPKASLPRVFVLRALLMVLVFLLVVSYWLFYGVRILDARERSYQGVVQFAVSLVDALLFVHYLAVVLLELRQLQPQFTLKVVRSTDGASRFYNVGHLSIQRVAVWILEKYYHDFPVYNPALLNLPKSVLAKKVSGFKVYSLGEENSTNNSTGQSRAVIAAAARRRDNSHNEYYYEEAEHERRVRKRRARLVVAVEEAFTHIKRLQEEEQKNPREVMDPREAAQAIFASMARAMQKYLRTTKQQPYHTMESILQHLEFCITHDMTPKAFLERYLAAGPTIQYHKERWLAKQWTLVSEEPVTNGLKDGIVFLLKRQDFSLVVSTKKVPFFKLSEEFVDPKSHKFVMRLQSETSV
The test is described as follows: co-IP; HEK 293T cells transfected with GFP-VANGL1 and pVANGL2 or pVANGL2-Long; IP with mAb 36E3 or N-VGL2 pAb; blots with a GFP-specific antibody and mAb 36E3.

Test [3] has as its target T3, VANGL2 (canonical 62 kD isoform, 521 aa), endogenous human (human (endogenous in SKBR7 and HEK 293T)) (UniProt Q9ULK5).
T3 sequence: T2 sequence
The test can be described thus: co-IP; endogenous proteins; SKBR7 or IMCD3 cell lysates (50 mM Hepes-NaOH pH 8, 150 mM NaCl, 10% glycerol, 2 mM EDTA, 0.5% NP-40) incubated overnight at 4 °C with N-VGL2 pAb (VANGL2-Long specific) or mAb 36E3, protein A or G beads; blots with mAb 36E3 and mAb 19D5; 62 kD and 70 kD bands quantified for the ratio.

B1: Vangl2 (canonical 62 kD isoform), endogenous mouse (protein, UniProt Q91ZD4 1-521)
chain: T2 sequence with G38S, T114I, V194I
For the molecule B1, in test [1], the binding entry is reported as “binds”.

B2: GFP-VANGL1 (protein, UniProt Q8TAA9 1-524)
chain: MDTESTYSGYSYYSSHSKKSHRQGERTRERHKSPRNKDGRGSEKSVTIQPPTGEPLLGNDSTRTEEVQDDNWGETTTAITGTSEHSISQEDIARISKDMEDSVGLDCKRYLGLTVASFLGLLVFLTPIAFILLPPILWRDELEPCGTICEGLFISMAFKLLILLIGTWALFFRKRRADMPRVFVFRALLLVLIFLFVVSYWLFYGVRILDSRDRNYQGIVQYAVSLVDALLFIHYLAIVLLELRQLQPMFTLQVVRSTDGESRFYSLGHLSIQRAALVVLENYYKDFTIYNPNLLTASKFRAAKHMAGLKVYNVDGPSNNATGQSRAMIAAAARRRDSSHNELYYEEAEHERRVKKRKARLVVAVEEAFIHIQRLQAEEQQKAPGEVMDPREAAQAIFPSMARALQKYLRITRQQNYHSMESILQHLAFCITNGMTPKAFLERYLSAGPTLQYDKDRWLSTQWRLVSDEAVTNGLRDGIVFVLKCLDFSLVVNVKKIPFIILSEEFIDPKSHKFVLRLQSETSV
Take B2: the binding entry in test [2] is on record as “binds”.

B3: VANGL1, endogenous human (protein, UniProt Q8TAA9 1-524)
chain: B2 chain
With B3, in test [3], the binding entry is “binds”.
